The test concerns P1534 leukemia ip, CD2F1 mice, survival T/C. Put plainly: NCI In Vivo Anticancer Drug Screen. Data for tumor model P1534 Leukemia (intraperitoneal) in CD2F1 (CDF1) mice. The conditions noted are these: T/C endpoint: mean survival time, schedule: Q01DX010 (ip), vehicle: saline, higher T/C = longer survival. As to the method: The antitumor activity of compounds was measured in mice bearing transplantable tumors. Survival or tumor size were measured and the results are expressed as the measurement made in the treated group (T) divided by the measurement made in the vehicle treated control group (C). The tumor model used in this assay is P1534 Leukemia (intraperitoneal) in CD2F1 (CDF1) mice

The list does not hold the whole screen: it gathers some chemical classes. Other doses and runs of a compound may be missing. T/C is the treated group as % of the vehicle group. Some entries give survivors of the animals treated and no T/C: the source holds a T/C of zero for them, seemingly a mark for toxic or unscored doses. Some survivor counts are full or nearly so, which does not show that the dose was tolerated: survival well below the control is almost never listed, so the zero probably covers shortened survival too. Survivors were counted at the toxicity check, usually on the fifth day, unless a day is given; later deaths do not show. Schedules are NCI's codes, read here as Q, the interval in days (D) or hours (H), X, the number of doses. Where survival is the endpoint, the PubChem record calls one and a half times the control and up active, and a quarter to a half above the control has no call in these data; cut-offs in other NCI protocols can differ. Some entries hold several experiments; the results are listed from low to high.

On to `NC1CCCCC1.O=P(O)(N(CCCl)CCCl)N1CC1`, for which the T/C reads like this: (dose: 1.25 mg/kg/injection) 107 % of control; (dose: 2.5 mg/kg/injection) 140 % of control; (dose: 5.0 mg/kg/injection) 196 % of control; (dose: 10.0 mg/kg/injection) 181 % of control.
Take `CC[C@H](C)[C@@H]1NC(=O)/C(=C(\C)O)C1=O`: the T/C by setting is: (dose: 3.9 mg/kg/injection) 100 % of control; (dose: 7.8 mg/kg/injection) 100 % of control; (dose: 15.6 mg/kg/injection) 100 and 107 % of control; (dose: 31.3 mg/kg/injection) 92 and 103 % of control. Also, the survivor count is 6 of 6 (dose: 62.5 mg/kg/injection) and 0 of 6 (dose: 125.0 mg/kg/injection).
Turning to `Cc1[nH]c(=O)[nH]c(=O)c1N(CCCl)CCCl`, the T/C reads like this: (dose: 0.5 mg/kg/injection) 140 % of control; (dose: 1.0 mg/kg/injection) 133 % of control. The survivor count runs as follows: (dose: 2.0 mg/kg/injection) 6 of 6; (dose: 4.0 mg/kg/injection) 6 of 6.
For the molecule `O=C(NN(CCCl)CCCl)c1ccccc1`, the T/C was 100 % of control (dose: 12.5 mg/kg/injection), 100 % of control (dose: 25.0 mg/kg/injection) and 107 % of control (dose: 50.0 mg/kg/injection). The survivor count (dose: 100.0 mg/kg/injection) is listed as 5 of 6.
Take `CC[C@@H](C)[C@@H]1NC(=O)/C(=C(\C)O)C1=O.c1ccc(CNCCNCc2ccccc2)cc1`: the T/C was 100 % of control (dose: 10.0 mg/kg/injection), 100 % of control (dose: 14.0 mg/kg/injection), 100 % of control (dose: 20.0 mg/kg/injection) and 100 % of control (dose: 30.0 mg/kg/injection).
Take `CN(N=O)C(=N)N[N+](=O)[O-]`: the T/C (dose: 8.0 mg/kg/injection) was 130 and 170 % of control; the T/C (dose: 16.0 mg/kg/injection) was 130 and 140 % of control; the T/C (dose: 32.0 mg/kg/injection) was 95 % of control. The survivor count (dose: 32.0 mg/kg/injection) was 6 of 6 and the survivor count (dose: 64.0 mg/kg/injection) is recorded as 4 of 6.
